# Measurements: the supplement of paper PMC10373366
# Structures can show the parent of a compound that is named as a salt. The list shows a part of the results. Single values are uncertain, as repeats are few or missing.
# What was measured:
# A2780 = assay: cell growth inhibition ratio vs untreated control (CCK8); higher = stronger inhibition of cell viability; settings: 10 µM; 48 h
# Method: (§1)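 Natural product library (Topscience) screened at 10 µM final concentration for 48 h on ovarian cancer A2780 cells and patient-derived ovarian cancer cells (PDC) in 96-well plates; viability read by CCK8 and reported as inhibition ratio (%) relative to untreated control. Single-dose primary screen.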
# [1] = test system: patient-derived ovarian cancer cells (PDC); assay: as above; settings: 10 µM; 48 h
# Method: as §1
SMILES,cell growth inhibition ratio (A2780),cell growth inhibition ratio [1]
O=C(O)c1cc(=O)c2cccc(O)c2[nH]1 [Xanthurenic Acid],6.5%,-21.7%
COc1cc(CNC(=O)CCCCCCC(C)C)ccc1O [Dihydrocapsaicin],17.4%,-2.7%
CC1(C)CC[C@]2(C(=O)O)CC[C@]3(C)C(=CC[C@@H]4[C@@]5(C)CC[C@H](O)C(C)(C)[C@@H]5CC[C@]43C)[C@@H]2C1 [Oleanolic Acid],26.5%,8.81%
NCCc1ccc(O)c(O)c1 [Dopamine hydrochloride],-24.8%,5.07%
COc1ccc(-c2oc3c(CC=C(C)C)c(O[C@@H]4O[C@H](CO)[C@@H](O)[C@H](O)[C@H]4O)cc(O)c3c(=O)c2O[C@@H]2O[C@@H](C)[C@H](O)[C@@H](O)[C@H]2O)cc1 [Icariin],11%,-1.06%
N[C@@H](Cc1c[nH]c2ccccc12)C(=O)O [L-Tryptophan],12.2%,7.42%
C[C@@H]1O[C@@H](Oc2c(-c3ccc(O)c(O)c3)oc3cc(O)cc(O)c3c2=O)[C@H](O)[C@H](O)[C@H]1O [Quercitrin],-2.72%,6.32%
COc1ccc(C[C@H]2COC(=O)[C@]2(O)Cc2ccc(O[C@@H]3O[C@H](CO)[C@@H](O)[C@H](O)[C@H]3O)c(OC)c2)cc1OC [tracheloside],27.3%,0.374%
O=C1c2cccc(O)c2C(=O)c2c(O)cc(CO)cc21 [Aloe-emodin],41%,10.4%
C[C@H](CCC(=O)O)[C@H]1CC[C@H]2[C@@H]3[C@H](O)C[C@@H]4C[C@H](O)CC[C@]4(C)[C@H]3C[C@H](O)[C@]12C [Cholic Acid],3.15%,-16.4%
NC1C(O)O[C@H](CO)C(O[C@@H]2O[C@H](CO)C(O[C@@H]3O[C@H](CO)[C@@H](O)[C@H](O)[C@H]3N)[C@H](O)C2N)C1O (stereo partly specified) [Chitosan],21.9%,-7.74%
CC(C)[C@@H]1CC[C@@H](C)C[C@H]1O [L-Menthol],2.34%,-5.3%
C[n+]1cccc(C(=O)[O-])c1 [Trigonelline hydrochloride],-0.946%,-3.3%
COc1cc(/C=C/C(=O)OCC[N+](C)(C)C)cc(OC)c1O [Sinapine thiocyanate],-0.334%,-7.67%
Cc1coc2c1C(=O)C(=O)c1c-2ccc2c1CCCC2(C)C [Tanshinone IIA],87.8%,15.2%
Cc1nc(C)c(C)nc1C [Tetramethylpyrazine],0.655%,-2.36%
C[C@@H]1O[C@@H](O[C@@H]2[C@@H](O)[C@H](OCCc3ccc(O)c(O)c3)O[C@H](CO)[C@H]2OC(=O)/C=C/c2ccc(O)c(O)c2)[C@H](O)[C@H](O)[C@H]1O [Verbascoside],5.14%,-1.41%
C[C@H](CCC(=O)O)[C@H]1CC[C@H]2[C@@H]3C[C@H](O)[C@@H]4C[C@H](O)CC[C@]4(C)[C@H]3CC[C@]12C [Hyodeoxycholic acid (HDCA)],4.8%,6.37%
C[C@]12CC[C@@H]3c4ccc(O)cc4CC[C@H]3[C@@H]1CC[C@@H]2O [Estradiol],6.73%,8.38%
OC[C@H]1O[C@H](O[C@]2(CCl)O[C@H](CCl)[C@@H](O)[C@@H]2O)[C@H](O)[C@@H](O)[C@H]1Cl [Sucralose],8.36%,-13.1%
"N[C@@H](Cc1cc(I)c(O)c(I)c1)C(=O)O [3,5-Diiodotyrosine Dihydrate]",13.1%,-12%

# Single records (already shown):
# C[C@]12CC[C@@H]3c4ccc(O)cc4CC[C@H]3[C@@H]1CC[C@@H]2O [Estradiol] is listed as cell growth inhibition ratio (A2780): 6.73%; cell growth inhibition ratio [1]: 8.38%
# N[C@@H](Cc1cc(I)c(O)c(I)c1)C(=O)O [3,5-Diiodotyrosine Dihydrate] is listed as cell growth inhibition ratio (A2780): 13.1%; cell growth inhibition ratio [1]: -12%
# COc1ccc(-c2oc3c(CC=C(C)C)c(O[C@@H]4O[C@H](CO)[C@@H](O)[C@H](O)[C@H]4O)cc(O)c3c(=O)c2O[C@@H]2O[C@@H](C)[C@H](O)[C@@H](O)[C@H]2O)cc1 [Icariin] is listed as cell growth inhibition ratio (A2780): 11%; cell growth inhibition ratio [1]: -1.06%
# OC[C@H]1O[C@H](O[C@]2(CCl)O[C@H](CCl)[C@@H](O)[C@@H]2O)[C@H](O)[C@@H](O)[C@H]1Cl [Sucralose] is listed as cell growth inhibition ratio (A2780): 8.36%; cell growth inhibition ratio [1]: -13.1%

# Carrying on.

SMILES,cell growth inhibition ratio (A2780),cell growth inhibition ratio [1]
Oc1cc2c(cc1O)[C@@H]1c3ccc(O)c(O)c3OC[C@]1(O)C2 [Hematoxylin],-26.9%,-9.41%
Cn1cnc2c1c(=O)[nH]c(=O)n2C [Theobromine],-0.586%,-31.4%
C[n+]1cccc(C(=O)[O-])c1 [Trigonelline],12.9%,9.98%
O=c1cc(-c2ccc(O)cc2)oc2c([C@@H]3OC[C@H](O)[C@H](O)[C@H]3O)c(O)c([C@@H]3O[C@H](CO)[C@@H](O)[C@H](O)[C@H]3O)c(O)c12,9.67%,-13.3%
CC(C)=CCc1c(O)ccc(C(=O)/C=C/c2ccc(O)cc2)c1O [Isobacachalcone],-13.8%,6.16%
C=C1CCC[C@]2(C)C[C@]3(O)OC(=O)C(C)=C3C[C@@H]12 [Atractylenolide III],-0.761%,-9.32%
CN(N=O)C(=O)N[C@@H]1[C@@H](O)[C@H](O)[C@@H](CO)O[C@@H]1O [Streptozocin],8.37%,8.93%
Cc1cc(O)c2c(c1)C(=O)c1cccc(O)c1C2=O [Chrysophanic Acid],7.94%,1.04%
OC[C@H]1O[C@H](O)[C@H](O)[C@@H](O)[C@H]1O [Alpha-D-galactose],-0.586%,1.02%
O=C1C[C@@H](c2ccc(O)cc2)Oc2cc(O)cc(O)c21 [Naringenin],-0.673%,-9.11%
C/C=C1\C(CC(=O)OC[C@H]2O[C@@H](OCCc3ccc(O)cc3)[C@H](O)[C@@H](O)[C@@H]2O)C(C(=O)OC)=CO[C@H]1O[C@@H]1O[C@H](CO)[C@@H](O)[C@H](O)[C@H]1O (stereo partly specified) [Nuezhenide],3.38%,3.46%
COc1c(O[C@@H]2O[C@H](CO)[C@@H](O)[C@H](O)[C@H]2O)cc2occ(-c3ccc(O)cc3)c(=O)c2c1O [Tectoridin],20.7%,-3.87%
COC(=O)/C=C/c1ccc(O)cc1 [Methyl 4-hydroxycinnamate],-64.4%,5.23%
Cc1cc(=O)oc2cc(O)ccc12 [4-Methylumbelliferone (4-MU)],13.6%,3.31%
Nc1ncnc2c1ncn2[C@@H]1O[C@H](CO)C[C@H]1O [Cordycepin],10.4%,5.16%
COc1ccc(CC(=O)O)cc1OC [Homoveratrumic acid],-9.83%,13.7%
O=C(O)CCCCCCCC(=O)O [Azelaic acid],4.42%,8.25%
C[N+]1(C)CCCC1C(=O)O (stereo unspecified) [Stachydrine Hydrochloride],17.8%,19.6%
COc1cc(O)cc2c1C(=O)C[C@@H](c1ccccc1)O2 [Alpinetin],29.6%,-7.34%
CC(=O)O[C@]1(C(C)=O)CC[C@H]2[C@@H]3C[C@H](C)C4=CC(=O)CC[C@]4(C)[C@H]3CC[C@@]21C [Farlutin],27.4%,20.3%
COc1ccccc1O [Guaiacol],12.5%,0.712%

SMILES,cell growth inhibition ratio (A2780),cell growth inhibition ratio [1]
COc1ccc(CCc2cc(OC)c(OC)c(OC)c2)cc1O [Erianin],88%,25.6%
O=C1C=C(O)c2ccccc2C1=O [Lawsone],11.6%,9.91%
OC[C@H]1O[C@H](O[C@H]2[C@H](O)[C@@H](O)[C@H](O)O[C@@H]2CO)[C@H](O)[C@@H](O)[C@@H]1O [Maltose],1.35%,3.18%
COc1ccc(C2CC(=O)c3c(O)cc(OC4OC(COC5OC(C)C(O)C(O)C5O)C(O)C(O)C4O)cc3O2)cc1OC (stereo unspecified) [Methyl hesperidin],6.47%,9.83%
CC(=O)c1c(O)cc(O)cc1O [Phloracetophenone],10.9%,6.92%
O=C([O-])[C@H](O)[C@@H](O)[C@H](O)[C@H](O)CO.[Na+] [Sodium gluconate],11.1%,-3.1%
COc1cc(O)c(C(C)=O)c(OC)c1 [Xanthoxyline],-7.77%,-11.2%
COc1cc2c(c(OC)c1OC)-c1c(cc3c(c1OC)OCO3)C[C@H](C)[C@](C)(O)[C@H]2OC(=O)c1ccccc1 [Schisantherin A],-2.44%,7.22%
Oc1cc(O)c2c(c1)O[C@H](c1ccc(O)c(O)c1)[C@@H](O)C2 [(+)-Catechin Hydrate],4.72%,6.19%
O=C(O)C(O)Cc1ccc(O)c(O)c1 (stereo unspecified) [Sodium Danshensu],6.27%,-26.8%
C[C@@H]1C(=O)O[C@H](C)[C@H]1C[C@@H](O)[C@](C)(O)[C@H]1CC[C@@]2(O)C3=CC(=O)[C@@H]4C[C@@H](O)[C@@H](O)C[C@]4(C)[C@H]3CC[C@]12C [Cyasterone],10.8%,-11.6%
"COc1cc2c(cc1OC)[C@@H]1Cc3ccc(OC)c(OC)c3CN1CC2 [Rotundine, TETRAHYDROPALMATINE HYDROCHLORIDE]",13.1%,-6.48%
C=C(C)[C@H]1CC=C(C)C(=O)C1 [(S)-(+)-Carvone],16.8%,16.1%
C[C@H](CCC(=O)O)[C@H]1CC[C@H]2[C@@H]3[C@H](O)C[C@@H]4C[C@H](O)CC[C@]4(C)[C@H]3CC[C@]12C [Chenodeoxycholic acid],9.13%,11.4%
C=C1CC23CCC4C(C)(C(=O)OC5OC(CO)C(O)C(O)C5O)CCCC4(C)C2CCC1(OC1OC(CO)C(O)C(OC2OC(CO)C(O)C(O)C2O)C1OC1OC(C)C(O)C(O)C1O)C3 (stereo unspecified) [Dulcoside B],0.311%,-5.5%
CCOC(=O)/C=C/c1ccc(O)c(OC)c1 [Ethyl ferulate],-10.8%,9.32%
COC(=O)c1ccc(O)cc1 [Methyl 4-hydroxybenzoate],16.4%,-6.76%
COc1cc(/C=C/c2cc(O)cc(O)c2)ccc1O [Isorhapontigenin],52.8%,11.4%
C[C@@H]1O[C@@H](O[C@H]2[C@H](Oc3cc(O)c(C(=O)CCc4ccc(O)cc4)c(O)c3)O[C@H](CO)[C@@H](O)[C@@H]2O)[C@H](O)[C@H](O)[C@H]1O [Naringin dihydrochalcone],-1.1%,-10%
O=C1CCC[C@@H]2[C@H]3CCC[N+]4([O-])CCC[C@@H](CN12)[C@@H]34 (stereo partly specified) [Oxymatrine],0.486%,-19.5%
O=c1c(-c2ccc(O)c(O)c2)coc2c([C@@H]3O[C@H](CO)[C@@H](O)[C@H](O)[C@H]3O)c(O)ccc12 [Pueraria glycoside],9.24%,-11%
